Experimental data reported in publication PMC8752738, “A propolis-derived small molecule ameliorates metabolic syndrome in obese mice by targeting the CREB/CRTC2 transcriptional complex” (Nature Communications, 2022).
Results are given in words; binding and its absence hold for the method and conditions named. For some assays here: In cells and extracts the contact can be indirect. Some entries that bind do so weakly or less than the wild type. For some assays here: Sequences can lack the tags named with a protein.

The chains behind the UniProt entries cited, without tags or fusion partners. Where a name states a change or a piece, a line headed by the entry shows the natural chain unless it says otherwise. Residues count along the entry.
UniProt P16220: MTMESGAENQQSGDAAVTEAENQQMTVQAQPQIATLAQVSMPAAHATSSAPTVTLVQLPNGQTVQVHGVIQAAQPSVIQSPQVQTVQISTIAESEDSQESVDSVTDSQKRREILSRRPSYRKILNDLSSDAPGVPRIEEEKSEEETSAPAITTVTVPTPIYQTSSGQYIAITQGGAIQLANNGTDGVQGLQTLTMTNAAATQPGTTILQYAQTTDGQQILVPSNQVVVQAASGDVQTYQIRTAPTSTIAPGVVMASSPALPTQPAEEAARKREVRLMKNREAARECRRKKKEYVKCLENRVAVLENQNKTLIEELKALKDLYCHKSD
CREB-KID: residues 87-146 of P16220
UniProt Q01147: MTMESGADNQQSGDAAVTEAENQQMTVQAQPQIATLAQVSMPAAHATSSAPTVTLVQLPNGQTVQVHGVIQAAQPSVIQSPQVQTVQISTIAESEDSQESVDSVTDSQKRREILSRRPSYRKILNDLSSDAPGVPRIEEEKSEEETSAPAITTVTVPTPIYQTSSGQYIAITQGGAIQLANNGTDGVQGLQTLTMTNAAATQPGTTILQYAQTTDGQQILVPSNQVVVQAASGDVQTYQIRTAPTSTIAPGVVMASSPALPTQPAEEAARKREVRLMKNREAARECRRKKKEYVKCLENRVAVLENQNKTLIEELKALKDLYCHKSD
UniProt P45481: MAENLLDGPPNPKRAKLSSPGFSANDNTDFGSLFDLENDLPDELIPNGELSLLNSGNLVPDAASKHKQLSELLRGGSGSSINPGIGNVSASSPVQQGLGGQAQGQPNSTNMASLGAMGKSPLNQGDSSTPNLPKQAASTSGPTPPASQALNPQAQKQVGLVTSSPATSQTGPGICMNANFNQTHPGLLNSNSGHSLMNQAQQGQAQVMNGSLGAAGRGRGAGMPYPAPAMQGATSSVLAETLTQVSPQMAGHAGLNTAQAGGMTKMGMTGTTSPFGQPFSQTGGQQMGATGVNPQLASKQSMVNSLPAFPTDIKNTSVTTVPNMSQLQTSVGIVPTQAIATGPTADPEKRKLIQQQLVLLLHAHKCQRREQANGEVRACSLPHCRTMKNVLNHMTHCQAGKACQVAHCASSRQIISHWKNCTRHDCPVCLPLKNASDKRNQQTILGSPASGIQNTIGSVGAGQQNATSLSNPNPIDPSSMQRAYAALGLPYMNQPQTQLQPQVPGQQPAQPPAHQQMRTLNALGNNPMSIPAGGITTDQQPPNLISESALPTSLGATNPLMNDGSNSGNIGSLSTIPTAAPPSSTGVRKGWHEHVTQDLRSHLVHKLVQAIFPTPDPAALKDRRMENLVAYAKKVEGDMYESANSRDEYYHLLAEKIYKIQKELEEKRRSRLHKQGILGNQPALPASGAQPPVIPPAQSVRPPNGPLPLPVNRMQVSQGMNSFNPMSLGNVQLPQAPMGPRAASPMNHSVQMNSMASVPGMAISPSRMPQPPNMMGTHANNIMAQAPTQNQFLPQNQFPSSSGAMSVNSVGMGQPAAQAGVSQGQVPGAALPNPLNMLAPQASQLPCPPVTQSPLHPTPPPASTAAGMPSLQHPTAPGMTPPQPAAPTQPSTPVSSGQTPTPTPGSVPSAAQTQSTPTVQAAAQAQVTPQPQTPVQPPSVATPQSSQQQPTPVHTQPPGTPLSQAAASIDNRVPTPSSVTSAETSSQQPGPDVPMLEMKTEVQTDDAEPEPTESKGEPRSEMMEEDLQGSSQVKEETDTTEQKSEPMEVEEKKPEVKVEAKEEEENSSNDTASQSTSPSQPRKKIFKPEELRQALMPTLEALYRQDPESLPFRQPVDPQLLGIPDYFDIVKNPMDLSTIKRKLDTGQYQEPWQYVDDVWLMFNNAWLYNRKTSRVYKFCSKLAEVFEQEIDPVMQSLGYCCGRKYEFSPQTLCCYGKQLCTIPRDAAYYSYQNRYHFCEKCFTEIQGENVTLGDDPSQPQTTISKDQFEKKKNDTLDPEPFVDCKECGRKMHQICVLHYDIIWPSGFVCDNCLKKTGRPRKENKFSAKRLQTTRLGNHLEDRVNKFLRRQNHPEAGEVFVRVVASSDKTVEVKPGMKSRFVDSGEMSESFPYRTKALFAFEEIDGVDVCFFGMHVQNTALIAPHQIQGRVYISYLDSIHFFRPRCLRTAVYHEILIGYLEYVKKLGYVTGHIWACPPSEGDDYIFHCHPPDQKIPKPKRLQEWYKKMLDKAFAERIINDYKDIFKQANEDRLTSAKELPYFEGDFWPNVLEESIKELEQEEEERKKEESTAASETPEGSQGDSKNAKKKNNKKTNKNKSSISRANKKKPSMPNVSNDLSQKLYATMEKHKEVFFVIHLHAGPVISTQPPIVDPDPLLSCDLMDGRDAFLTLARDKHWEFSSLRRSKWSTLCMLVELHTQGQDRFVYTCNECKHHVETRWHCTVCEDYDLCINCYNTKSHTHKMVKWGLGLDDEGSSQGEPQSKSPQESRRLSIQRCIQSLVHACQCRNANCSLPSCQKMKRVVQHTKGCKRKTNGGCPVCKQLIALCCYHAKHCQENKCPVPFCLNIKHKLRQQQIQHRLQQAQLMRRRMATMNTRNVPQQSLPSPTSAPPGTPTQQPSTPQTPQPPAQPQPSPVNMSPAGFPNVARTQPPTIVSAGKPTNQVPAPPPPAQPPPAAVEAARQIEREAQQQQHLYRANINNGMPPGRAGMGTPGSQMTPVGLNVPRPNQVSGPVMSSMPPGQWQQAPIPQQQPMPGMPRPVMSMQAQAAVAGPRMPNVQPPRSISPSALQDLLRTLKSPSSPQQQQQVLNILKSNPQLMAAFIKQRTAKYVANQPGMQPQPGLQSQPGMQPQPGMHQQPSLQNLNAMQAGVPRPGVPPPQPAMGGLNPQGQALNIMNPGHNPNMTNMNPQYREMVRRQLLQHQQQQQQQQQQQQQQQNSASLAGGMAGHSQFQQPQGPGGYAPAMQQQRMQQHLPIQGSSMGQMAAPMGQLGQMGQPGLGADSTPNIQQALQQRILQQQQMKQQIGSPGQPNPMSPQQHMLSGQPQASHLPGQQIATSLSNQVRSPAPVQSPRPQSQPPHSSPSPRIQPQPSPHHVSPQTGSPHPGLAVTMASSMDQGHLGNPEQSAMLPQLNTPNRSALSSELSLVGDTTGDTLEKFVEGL
UniProt Q92793, residues 587-666: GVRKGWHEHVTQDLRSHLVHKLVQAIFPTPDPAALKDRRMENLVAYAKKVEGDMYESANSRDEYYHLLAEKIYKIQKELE

Key:
[1] = target: T1, endogenous CRTC2 (mouse (endogenous in primary hepatocytes)) (UniProt Q3U182); test: co-IP; anti-CRTC2 antibody, endogenous proteins in lysates of primary hepatocytes; with or without glucagon and APC (10 uM)
T1 sequence: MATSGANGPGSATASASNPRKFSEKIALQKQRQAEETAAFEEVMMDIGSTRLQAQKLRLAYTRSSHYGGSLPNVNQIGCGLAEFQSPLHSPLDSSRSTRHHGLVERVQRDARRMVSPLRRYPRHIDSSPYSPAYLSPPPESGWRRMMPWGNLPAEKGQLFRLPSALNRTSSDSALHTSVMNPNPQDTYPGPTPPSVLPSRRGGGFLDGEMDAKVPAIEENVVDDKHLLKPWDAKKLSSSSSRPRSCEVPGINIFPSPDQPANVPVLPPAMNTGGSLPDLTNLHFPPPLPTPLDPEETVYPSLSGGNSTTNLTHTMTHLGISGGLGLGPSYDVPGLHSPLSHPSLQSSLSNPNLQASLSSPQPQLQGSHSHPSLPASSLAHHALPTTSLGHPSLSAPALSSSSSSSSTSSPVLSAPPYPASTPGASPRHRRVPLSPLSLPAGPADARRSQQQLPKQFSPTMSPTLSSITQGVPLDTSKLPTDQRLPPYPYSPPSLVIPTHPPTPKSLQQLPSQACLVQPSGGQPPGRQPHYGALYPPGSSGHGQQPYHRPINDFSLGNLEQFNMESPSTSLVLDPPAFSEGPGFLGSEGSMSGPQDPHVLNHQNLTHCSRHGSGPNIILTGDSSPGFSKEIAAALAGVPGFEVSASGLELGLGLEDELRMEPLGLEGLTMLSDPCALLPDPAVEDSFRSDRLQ

CREB-KID = CREB-KID (UniProt P16220); test: two-hybrid; two-hybrid assay of CBP-KIX and CREB-KID domains, with or without APC (Supplementary Fig. 2h)
BD-CREB (human) = BD-CREB (human) (UniProt P16220); test: two-hybrid; mammalian two-hybrid in HEK293T cells: BD-CREB and VP16AD-CRTC2-S171A with GAL4-Luc reporter, normalised to Renilla; with vehicle or propolis (0-0.1%)
[2] = target: T2, CRTC2 (co-immunoprecipitation with SEC31A, Supplementary Fig. 5b) (UniProt Q53ET0); test: co-IP; co-immunoprecipitation of CRTC2 and SEC31A, with or without APC (Supplementary Fig. 5b)
T2 sequence: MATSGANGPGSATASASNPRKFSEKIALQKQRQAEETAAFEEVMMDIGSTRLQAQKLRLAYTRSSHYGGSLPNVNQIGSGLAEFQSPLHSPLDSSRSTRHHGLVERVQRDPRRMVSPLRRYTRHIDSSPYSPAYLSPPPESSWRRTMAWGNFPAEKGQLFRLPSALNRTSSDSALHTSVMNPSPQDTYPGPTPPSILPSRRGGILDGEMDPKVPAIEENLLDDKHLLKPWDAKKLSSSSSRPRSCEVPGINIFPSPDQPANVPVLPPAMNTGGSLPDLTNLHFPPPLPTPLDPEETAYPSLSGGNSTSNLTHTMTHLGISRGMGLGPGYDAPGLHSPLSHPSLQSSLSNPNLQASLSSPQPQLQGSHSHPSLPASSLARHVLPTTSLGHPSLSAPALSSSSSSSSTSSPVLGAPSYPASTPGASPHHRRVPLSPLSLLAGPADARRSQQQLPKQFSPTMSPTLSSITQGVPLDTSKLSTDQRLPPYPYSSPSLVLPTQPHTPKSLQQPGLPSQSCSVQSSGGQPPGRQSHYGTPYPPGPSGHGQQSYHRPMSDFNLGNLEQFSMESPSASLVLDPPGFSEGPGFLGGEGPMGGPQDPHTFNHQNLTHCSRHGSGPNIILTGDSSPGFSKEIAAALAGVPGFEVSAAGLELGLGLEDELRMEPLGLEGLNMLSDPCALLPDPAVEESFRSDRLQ

GST-CREB [3] = target: GST-CREB (UniProt P16220); test: pull-down; GST-CREB beads with lysates of HEK293T cells overexpressing FLAG-CRTC2; with or without APC (10 uM) in the culture media and the mixture; only the target purified
[4] = target: endogenous CREB (mouse (endogenous in primary hepatocytes)) (UniProt Q01147); test: co-IP; anti-CREB antibody, lysates of primary hepatocytes expressing HA-CRTC2; with or without glucagon (100 nM) and APC (10 uM)
GST-CREB [5] = target: GST-CREB (UniProt P16220); test: pull-down; in vitro pull-down, purified GST-CREB and HIS-CRTC2-S171A from E. coli; APC 0, 5, 10 or 50 uM in the mixture; both purified

Molecule: endogenous CREB (from UniProt Q01147 1-327)
- binding [1]: binds

Molecule: endogenous CBP (from UniProt P45481 1-2441)
- binding [1]: binds

Molecule: CBP-KIX (from UniProt Q92793 587-666) (domain or fragment)
- binding (CREB-KID): binds

B1: VP16AD-CRTC2-S171A (protein, UniProt Q53ET0 1-693)
chain: MATSGANGPGSATASASNPRKFSEKIALQKQRQAEETAAFEEVMMDIGSTRLQAQKLRLAYTRSSHYGGSLPNVNQIGSGLAEFQSPLHSPLDSSRSTRHHGLVERVQRDPRRMVSPLRRYTRHIDSSPYSPAYLSPPPESSWRRTMAWGNFPAEKGQLFRLPSALNRTSADSALHTSVMNPSPQDTYPGPTPPSILPSRRGGILDGEMDPKVPAIEENLLDDKHLLKPWDAKKLSSSSSRPRSCEVPGINIFPSPDQPANVPVLPPAMNTGGSLPDLTNLHFPPPLPTPLDPEETAYPSLSGGNSTSNLTHTMTHLGISRGMGLGPGYDAPGLHSPLSHPSLQSSLSNPNLQASLSSPQPQLQGSHSHPSLPASSLARHVLPTTSLGHPSLSAPALSSSSSSSSTSSPVLGAPSYPASTPGASPHHRRVPLSPLSLLAGPADARRSQQQLPKQFSPTMSPTLSSITQGVPLDTSKLSTDQRLPPYPYSSPSLVLPTQPHTPKSLQQPGLPSQSCSVQSSGGQPPGRQSHYGTPYPPGPSGHGQQSYHRPMSDFNLGNLEQFSMESPSASLVLDPPGFSEGPGFLGGEGPMGGPQDPHTFNHQNLTHCSRHGSGPNIILTGDSSPGFSKEIAAALAGVPGFEVSAAGLELGLGLEDELRMEPLGLEGLNMLSDPCALLPDPAVEESFRSDRLQ
- binding (BD-CREB (human)): binds

B2: SEC31A (protein, UniProt O94979 1-1220)
chain: MKLKEVDRTAMQAWSPAQNHPIYLATGTSAQQLDATFSTNASLEIFELDLSDPSLDMKSCATFSSSHRYHKLIWGPYKMDSKGDVSGVLIAGGENGNIILYDPSKIIAGDKEVVIAQNDKHTGPVRALDVNIFQTNLVASGANESEIYIWDLNNFATPMTPGAKTQPPEDISCIAWNRQVQHILASASPSGRATVWDLRKNEPIIKVSDHSNRMHCSGLAWHPDVATQMVLASEDDRLPVIQMWDLRFASSPLRVLENHARGILAIAWSMADPELLLSCGKDAKILCSNPNTGEVLYELPTNTQWCFDIQWCPRNPAVLSAASFDGRISVYSIMGGSTDGLRQKQVDKLSSSFGNLDPFGTGQPLPPLQIPQQTAQHSIVLPLKKPPKWIRRPVGASFSFGGKLVTFENVRMPSHQGAEQQQQQHHVFISQVVTEKEFLSRSDQLQQAVQSQGFINYCQKKIDASQTEFEKNVWSFLKVNFEDDSRGKYLELLGYRKEDLGKKIALALNKVDGANVALKDSDQVAQSDGEESPAAEEQLLGEHIKEEKEESEFLPSSGGTFNISVSGDIDGLITQALLTGNFESAVDLCLHDNRMADAIILAIAGGQELLARTQKKYFAKSQSKITRLITAVVMKNWKEIVESCDLKNWREALAAVLTYAKPDEFSALCDLLGTRLENEGDSLLQTQACLCYICAGNVEKLVACWTKAQDGSHPLSLQDLIEKVVILRKAVQLTQAMDTSTVGVLLAAKMSQYANLLAAQGSIAAALAFLPDNTNQPNIMQLRDRLCRAQGEPVAGHESPKIPYEKQQLPKGRPGPVAGHHQMPRVQTQQYYPHGENPPPPGFIMHGNVNPNAAGQLPTSPGHMHTQVPPYPQPQPYQPAQPYPFGTGGSAMYRPQQPVAPPTSNAYPNTPYISSASSYTGQSQLYAAQHQASSPTSSPATSFPPPPSSGASFQHGGPGAPPSSSAYALPPGTTGTLPAASELPASQRTGPQNGWNDPPALNRVPKKKKMPENFMPPVPITSPIMNPLGDPQSQMLQQQPSAPVPLSSQSSFPQPHLPGGQPFHGVQQPLGQTGMPPSFSKPNIEGAPGAPIGNTFQHVQSLPTKKITKKPIPDEHLILKTTFEDLIQRCLSSATDPQTKRKLDDASKRLEFLYDKLREQTLSPTITSGLHNIARSIETRNYSEGLTMHTHIVSTSNFSETSAFMPVLKVVLTQANKLGV
- binding [2]: binds

B3: FLAG-CRTC2 (protein, UniProt Q53ET0 1-693)
chain: MATSGANGPGSATASASNPRKFSEKIALQKQRQAEETAAFEEVMMDIGSTRLQAQKLRLAYTRSSHYGGSLPNVNQIGSGLAEFQSPLHSPLDSSRSTRHHGLVERVQRDPRRMVSPLRRYTRHIDSSPYSPAYLSPPPESSWRRTMAWGNFPAEKGQLFRLPSALNRTSSDSALHTSVMNPSPQDTYPGPTPPSILPSRRGGILDGEMDPKVPAIEENLLDDKHLLKPWDAKKLSSSSSRPRSCEVPGINIFPSPDQPANVPVLPPAMNTGGSLPDLTNLHFPPPLPTPLDPEETAYPSLSGGNSTSNLTHTMTHLGISRGMGLGPGYDAPGLHSPLSHPSLQSSLSNPNLQASLSSPQPQLQGSHSHPSLPASSLARHVLPTTSLGHPSLSAPALSSSSSSSSTSSPVLGAPSYPASTPGASPHHRRVPLSPLSLLAGPADARRSQQQLPKQFSPTMSPTLSSITQGVPLDTSKLSTDQRLPPYPYSSPSLVLPTQPHTPKSLQQPGLPSQSCSVQSSGGQPPGRQSHYGTPYPPGPSGHGQQSYHRPMSDFNLGNLEQFSMESPSASLVLDPPGFSEGPGFLGGEGPMGGPQDPHTFNHQNLTHCSRHGSGPNIILTGDSSPGFSKEIAAALAGVPGFEVSAAGLELGLGLEDELRMEPLGLEGLNMLSDPCALLPDPAVEESFRSDRLQ
- binding (GST-CREB [3]): binds

B4: HA-CRTC2 (protein, UniProt Q53ET0 1-693)
chain: MATSGANGPGSATASASNPRKFSEKIALQKQRQAEETAAFEEVMMDIGSTRLQAQKLRLAYTRSSHYGGSLPNVNQIGSGLAEFQSPLHSPLDSSRSTRHHGLVERVQRDPRRMVSPLRRYTRHIDSSPYSPAYLSPPPESSWRRTMAWGNFPAEKGQLFRLPSALNRTSSDSALHTSVMNPSPQDTYPGPTPPSILPSRRGGILDGEMDPKVPAIEENLLDDKHLLKPWDAKKLSSSSSRPRSCEVPGINIFPSPDQPANVPVLPPAMNTGGSLPDLTNLHFPPPLPTPLDPEETAYPSLSGGNSTSNLTHTMTHLGISRGMGLGPGYDAPGLHSPLSHPSLQSSLSNPNLQASLSSPQPQLQGSHSHPSLPASSLARHVLPTTSLGHPSLSAPALSSSSSSSSTSSPVLGAPSYPASTPGASPHHRRVPLSPLSLLAGPADARRSQQQLPKQFSPTMSPTLSSITQGVPLDTSKLSTDQRLPPYPYSSPSLVLPTQPHTPKSLQQPGLPSQSCSVQSSGGQPPGRQSHYGTPYPPGPSGHGQQSYHRPMSDFNLGNLEQFSMESPSASLVLDPPGFSEGPGFLGGEGPMGGPQDPHTFNHQNLTHCSRHGSGPNIILTGDSSPGFSKEIAAALAGVPGFEVSAAGLELGLGLEDELRMEPLGLEGLNMLSDPCALLPDPAVEESFRSDRLQ
- binding [4]: binds

B5: HIS-CRTC2-S171A (protein, UniProt Q53ET0 1-693)
chain: MATSGANGPGSATASASNPRKFSEKIALQKQRQAEETAAFEEVMMDIGSTRLQAQKLRLAYTRSSHYGGSLPNVNQIGSGLAEFQSPLHSPLDSSRSTRHHGLVERVQRDPRRMVSPLRRYTRHIDSSPYSPAYLSPPPESSWRRTMAWGNFPAEKGQLFRLPSALNRTSADSALHTSVMNPSPQDTYPGPTPPSILPSRRGGILDGEMDPKVPAIEENLLDDKHLLKPWDAKKLSSSSSRPRSCEVPGINIFPSPDQPANVPVLPPAMNTGGSLPDLTNLHFPPPLPTPLDPEETAYPSLSGGNSTSNLTHTMTHLGISRGMGLGPGYDAPGLHSPLSHPSLQSSLSNPNLQASLSSPQPQLQGSHSHPSLPASSLARHVLPTTSLGHPSLSAPALSSSSSSSSTSSPVLGAPSYPASTPGASPHHRRVPLSPLSLLAGPADARRSQQQLPKQFSPTMSPTLSSITQGVPLDTSKLSTDQRLPPYPYSSPSLVLPTQPHTPKSLQQPGLPSQSCSVQSSGGQPPGRQSHYGTPYPPGPSGHGQQSYHRPMSDFNLGNLEQFSMESPSASLVLDPPGFSEGPGFLGGEGPMGGPQDPHTFNHQNLTHCSRHGSGPNIILTGDSSPGFSKEIAAALAGVPGFEVSAAGLELGLGLEDELRMEPLGLEGLNMLSDPCALLPDPAVEESFRSDRLQ
- binding (GST-CREB [5]): binds
